Test results reported in doi:10.1101/2024.10.11.617944.
Results are given in words; binding and its absence hold for the method and conditions named. For some assays here: In cells and extracts the contact can be indirect. Some entries that bind do so weakly or less than the wild type. Where a sequence is shown, tags or fusion partners need not be part of it.

Columns and labels:
[1] = target: T1, ABI5-Binding Protein 1 (AFP1), yeast two-hybrid fusions (Arabidopsis thaliana) (UniProt Q9LQ98); experiment: two-hybrid
T1 sequence: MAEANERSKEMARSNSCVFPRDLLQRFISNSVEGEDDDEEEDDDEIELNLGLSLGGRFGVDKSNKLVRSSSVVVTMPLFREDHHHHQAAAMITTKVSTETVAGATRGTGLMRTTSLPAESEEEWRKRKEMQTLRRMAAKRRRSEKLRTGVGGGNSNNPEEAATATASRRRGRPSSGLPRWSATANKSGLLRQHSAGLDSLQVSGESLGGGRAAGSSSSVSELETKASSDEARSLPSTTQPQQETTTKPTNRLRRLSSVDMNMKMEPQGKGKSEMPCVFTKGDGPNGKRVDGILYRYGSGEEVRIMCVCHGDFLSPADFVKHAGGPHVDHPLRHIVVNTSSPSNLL

[2] = target: T2, ABI5-Binding Protein 2 (AFP2), yeast two-hybrid fusions (Arabidopsis thaliana) (UniProt Q9LMX5); experiment: two-hybrid
T2 sequence: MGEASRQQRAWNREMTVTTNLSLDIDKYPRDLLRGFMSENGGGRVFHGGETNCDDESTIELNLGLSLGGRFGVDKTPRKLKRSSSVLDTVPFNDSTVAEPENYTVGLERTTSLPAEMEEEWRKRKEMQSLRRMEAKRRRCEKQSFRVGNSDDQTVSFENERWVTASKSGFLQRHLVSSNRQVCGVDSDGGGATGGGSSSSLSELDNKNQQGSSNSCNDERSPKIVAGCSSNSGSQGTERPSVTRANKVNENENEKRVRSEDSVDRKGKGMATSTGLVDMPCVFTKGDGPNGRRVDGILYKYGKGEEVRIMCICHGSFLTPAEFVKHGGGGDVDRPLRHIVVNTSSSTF

[3] = target: T3, GRF4 (14-3-3 phi), split YFP fusions (Arabidopsis thaliana) (UniProt P46077); experiment: split reporter
T3 sequence: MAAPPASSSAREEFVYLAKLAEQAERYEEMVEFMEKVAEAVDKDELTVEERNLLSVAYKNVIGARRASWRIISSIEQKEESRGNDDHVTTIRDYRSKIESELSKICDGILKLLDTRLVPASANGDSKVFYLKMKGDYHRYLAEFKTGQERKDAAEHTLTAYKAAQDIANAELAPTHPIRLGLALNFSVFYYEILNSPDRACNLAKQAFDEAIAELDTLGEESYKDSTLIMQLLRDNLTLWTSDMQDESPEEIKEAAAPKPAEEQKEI

[4] = target: T4, MPK3, BD fusion (Arabidopsis thaliana) (UniProt Q39023); experiment: two-hybrid
T4 sequence: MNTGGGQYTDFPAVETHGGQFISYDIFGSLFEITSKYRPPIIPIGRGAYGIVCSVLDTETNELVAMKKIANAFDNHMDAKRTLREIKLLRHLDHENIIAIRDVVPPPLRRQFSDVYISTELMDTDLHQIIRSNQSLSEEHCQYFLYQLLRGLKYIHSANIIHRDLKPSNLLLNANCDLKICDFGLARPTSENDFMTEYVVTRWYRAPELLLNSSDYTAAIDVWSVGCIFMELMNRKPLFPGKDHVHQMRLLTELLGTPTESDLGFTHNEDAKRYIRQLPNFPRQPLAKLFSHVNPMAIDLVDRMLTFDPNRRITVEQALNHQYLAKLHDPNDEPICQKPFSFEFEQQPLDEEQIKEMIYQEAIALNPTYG

[5] = target: T5, MPK7, yeast two-hybrid fusion (Arabidopsis thaliana) (UniProt Q39027); experiment: two-hybrid
T5 sequence: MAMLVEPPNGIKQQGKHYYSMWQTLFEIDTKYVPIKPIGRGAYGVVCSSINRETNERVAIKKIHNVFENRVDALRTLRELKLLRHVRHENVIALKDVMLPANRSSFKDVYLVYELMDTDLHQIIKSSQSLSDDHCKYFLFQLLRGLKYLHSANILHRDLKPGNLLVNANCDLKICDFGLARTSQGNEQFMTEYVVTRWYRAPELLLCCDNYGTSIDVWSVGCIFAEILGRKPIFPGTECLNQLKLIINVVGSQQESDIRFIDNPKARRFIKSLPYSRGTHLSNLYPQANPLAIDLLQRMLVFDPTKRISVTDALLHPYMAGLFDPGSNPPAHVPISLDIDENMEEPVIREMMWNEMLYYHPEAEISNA

[6] = target: T6, SnRK2.2, BD fusion (Arabidopsis thaliana) (UniProt Q39192); experiment: two-hybrid
T6 sequence: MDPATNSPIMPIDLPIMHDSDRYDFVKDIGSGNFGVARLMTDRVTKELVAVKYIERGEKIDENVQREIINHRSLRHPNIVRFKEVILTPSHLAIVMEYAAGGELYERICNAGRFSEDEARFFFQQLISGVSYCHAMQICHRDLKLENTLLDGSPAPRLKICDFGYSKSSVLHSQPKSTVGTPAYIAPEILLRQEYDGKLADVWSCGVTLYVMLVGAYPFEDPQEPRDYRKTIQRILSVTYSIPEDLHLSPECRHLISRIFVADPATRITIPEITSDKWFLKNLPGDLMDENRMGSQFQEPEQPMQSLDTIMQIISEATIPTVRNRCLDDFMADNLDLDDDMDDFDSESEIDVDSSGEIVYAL

[7] = target: T7, SnRK2.3, BD fusion (Arabidopsis thaliana) (UniProt Q39193); experiment: two-hybrid
T7 sequence: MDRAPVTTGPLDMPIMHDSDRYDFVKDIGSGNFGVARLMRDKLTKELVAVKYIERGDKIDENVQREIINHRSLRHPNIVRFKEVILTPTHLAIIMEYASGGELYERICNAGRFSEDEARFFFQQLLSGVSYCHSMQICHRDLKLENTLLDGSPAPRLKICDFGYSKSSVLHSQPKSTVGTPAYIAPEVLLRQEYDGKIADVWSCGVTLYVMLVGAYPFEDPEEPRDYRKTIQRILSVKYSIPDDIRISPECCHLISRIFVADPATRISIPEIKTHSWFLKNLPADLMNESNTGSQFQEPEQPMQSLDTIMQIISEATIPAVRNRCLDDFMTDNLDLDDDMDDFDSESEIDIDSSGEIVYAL

[8] = target: T8, SnRK2.6, BD fusion (Arabidopsis thaliana) (UniProt Q940H6); experiment: two-hybrid
T8 sequence: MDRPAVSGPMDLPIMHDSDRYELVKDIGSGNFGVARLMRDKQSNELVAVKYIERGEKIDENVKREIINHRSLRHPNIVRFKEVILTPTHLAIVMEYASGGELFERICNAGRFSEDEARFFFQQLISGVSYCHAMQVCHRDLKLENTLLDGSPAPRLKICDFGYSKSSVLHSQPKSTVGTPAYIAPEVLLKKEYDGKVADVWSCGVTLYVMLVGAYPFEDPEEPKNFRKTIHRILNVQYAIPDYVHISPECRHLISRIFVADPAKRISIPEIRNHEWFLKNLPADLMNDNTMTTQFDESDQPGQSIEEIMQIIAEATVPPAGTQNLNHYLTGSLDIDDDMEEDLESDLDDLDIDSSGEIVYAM

B1: GRF1 (14-3-3 chi), AD fusion (protein, UniProt P42643 1-267)
chain: MATPGASSARDEFVYMAKLAEQAERYEEMVEFMEKVAKAVDKDELTVEERNLLSVAYKNVIGARRASWRIISSIEQKEESRGNDDHVSLIRDYRSKIETELSDICDGILKLLDTILVPAAASGDSKVFYLKMKGDYHRYLAEFKSGQERKDAAEHTLTAYKAAQDIANSELAPTHPIRLGLALNFSVFYYEILNSPDRACNLAKQAFDEAIAELDTLGEESYKDSTLIMQLLRDNLTLWTSDMQDDVADDIKEAAPAAAKPADEQQS
binding [1]: binds weakly | binding [2]: no binding

B2: GRF2 (14-3-3 omega), AD fusion (protein, UniProt Q01525 1-259)
chain: MASGREEFVYMAKLAEQAERYEEMVEFMEKVSAAVDGDELTVEERNLLSVAYKNVIGARRASWRIISSIEQKEESRGNDDHVTAIREYRSKIETELSGICDGILKLLDSRLIPAAASGDSKVFYLKMKGDYHRYLAEFKTGQERKDAAEHTLAAYKSAQDIANAELAPTHPIRLGLALNFSVFYYEILNSPDRACNLAKQAFDEAIAELDTLGEESYKDSTLIMQLLRDNLTLWTSDMQDDAADEIKEAAAPKPTEEQQ
binding [1]: binds weakly | binding [2]: no binding

B3: GRF3 (14-3-3 psi), AD fusion (protein, UniProt P42644 1-255)
chain: MSTREENVYMAKLAEQAERYEEMVEFMEKVAKTVDVEELSVEERNLLSVAYKNVIGARRASWRIISSIEQKEESKGNEDHVAIIKDYRGKIESELSKICDGILNVLEAHLIPSASPAESKVFYLKMKGDYHRYLAEFKAGAERKEAAESTLVAYKSASDIATAELAPTHPIRLGLALNFSVFYYEILNSPDRACSLAKQAFDDAIAELDTLGEESYKDSTLIMQLLRDNLTLWTSDMTDEAGDEIKEASKPDGAE
binding [1]: binds weakly | binding [2]: binds

B4: GRF4 (14-3-3 phi), AD fusion (protein, UniProt P46077 1-267)
chain: MAAPPASSSAREEFVYLAKLAEQAERYEEMVEFMEKVAEAVDKDELTVEERNLLSVAYKNVIGARRASWRIISSIEQKEESRGNDDHVTTIRDYRSKIESELSKICDGILKLLDTRLVPASANGDSKVFYLKMKGDYHRYLAEFKTGQERKDAAEHTLTAYKAAQDIANAELAPTHPIRLGLALNFSVFYYEILNSPDRACNLAKQAFDEAIAELDTLGEESYKDSTLIMQLLRDNLTLWTSDMQDESPEEIKEAAAPKPAEEQKEI
binding [1]: binds weakly | binding [2]: binds

B5: S112A mutant of the AFP2-BC domain, split YFP fusion (domain or fragment, UniProt Q9LMX5 94-348)
chain: DSTVAEPENYTVGLERTTALPAEMEEEWRKRKEMQSLRRMEAKRRRCEKQSFRVGNSDDQTVSFENERWVTASKSGFLQRHLVSSNRQVCGVDSDGGGATGGGSSSSLSELDNKNQQGSSNSCNDERSPKIVAGCSSNSGSQGTERPSVTRANKVNENENEKRVRSEDSVDRKGKGMATSTGLVDMPCVFTKGDGPNGRRVDGILYKYGKGEEVRIMCICHGSFLTPAEFVKHGGGGDVDRPLRHIVVNTSSSTF
binding [3]: binds

B6: ABI5-Binding Protein 4 (AFP4), yeast two-hybrid fusions (protein, UniProt Q9S7Z2 1-319)
chain: MEMIRGRGIPNGVVQVPNLSANNLLQKFFIASNHFCQRDSEHGENQQEAKKREDEAEEDEKDVELTLGLSLNGQFGTDPRSRKRRHFELGRSSSIPEGFVFDEQRSGGGNGGDMRRIVGRGGSDMFQLDRTRSLPVVTEMDIEKERKVSEKTRAFMESPVTNRGAYLTKDKNRGQAVETEKPRAFLEFKIPPTKEGKKEKDRLVVTGPVNGKGKNGNTAKKQKNNVENSGMEKARNILEDMPCVSTRDVGADGKRVEGFLYWYGGNKEEVKIVCVCHGSFLSPAEFVRHGGGTVSDDDGGDVMINPLRHIVVKLPSSSI
binding [4]: no binding | binding [5]: no binding | binding [6]: no binding | binding [7]: no binding | binding [8]: no binding
